The results in this text go back to PubChem BioAssay AID2685 (National Center for Advancing Translational Sciences (NCATS), 2010).

The assay can be described thus: qHTS Assay for Lipid Storage Modulators in Drosophila S3 Cells.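 For cell number change: cells counted by Cell Tracker Red CMTPX staining in the red channel.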 Particulars: BODIPY lipid droplet fluorescence, 18-24 h; for cell number change: measured here: cell count max response, cells fed with added oleic acid. The gist of the method:
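Drosophila S3 cells got compounds at several concentrations plus oleic acid (400 uM solution). Laser-scanning cytometry with 488 nm excitation read lipid droplets at 500-530 nm and cells at 575-640 nm. Percent activity was relative to 20 uM Triacsin C.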
For orientation: In qHTS, concentration-response curves come from the screen itself.

Where [1] appears, read: measured here: lipid fluorescence (Fed channel) AC50, cells fed with added oleic acid.
Where [2] appears, read: measured here: cell number channel AC50, cells fed with added oleic acid.

This is one part of the list. Shown are side measurements of this screen, not its main read-out; they come without a call. Most of these compounds were active or inconclusive in the main read-out, so they are no random draw. The note in brackets gives the kind of curve behind each potency; many fits are weak.

A word on the AC50: it is the concentration giving half of the maximal activity seen. The low end stands for greater potency, the high end for weaker potency. With `CC(C)CCn1c(SCc2ccc(Cl)cc2)nc2c1c(=O)[nH]c(=O)n2C`, the cell number change was -8.14%. The AC50 under setting [1] is 0.058 µM [falling, partial curve, poor fit]. As for `Cc1nonc1NC(=O)CSc1nnc(-c2ccoc2C)n1C`, the cell number change is -20.2%. Moreover, under setting [1], the half-maximal activity concentration (AC50) was 0.82 µM [falling, single point]. In the case of `CCCCc1ccc(-n2nnnc2SCC(=O)Nc2cc(OC)c([N+](=O)[O-])cc2C)cc1`, the cell number change is 31.5%. The concentration at half-maximal activity (AC50) under setting [2] is 1.84 µM [rising, full curve]. For the same molecule, under setting [1], the AC50 was 2.59 µM [rising, partial curve]. Regarding `CCOc1ccc(C2=Nn3c(nnc3-c3ccc(OC)cc3)SC2)cc1`, the cell number change is -1.36%. Take `COc1ccc2cc(CCNC(=O)C3CCCC3)c(=O)[nH]c2c1`: the cell number change turned out to be 136%. The AC50 under setting [2] is 4.61 µM [rising, partial curve]. Under setting [1], the concentration at half-maximal activity (AC50) is 2.59 µM [rising, partial curve].

Consider `COc1cc(C(=O)NC2CCCc3ccccc32)cc(OC)c1C` (stereo not drawn), for which the cell number change was 8.26%. For `CCOC(=O)N1CCN(C(=O)CSCC(=O)Nc2nc(-c3ccc4c(c3)OCO4)cs2)CC1`, the cell number change is -22%. Besides, the concentration at half-maximal activity (AC50) under setting [1] is 18.4 µM [falling, single point]. For the molecule `O=C(O)C1C(c2ccccc2)C(C(=O)N2CCOCC2)C1c1ccccc1` (stereo not drawn), the cell number change was -1.41%. Besides, under setting [1], the concentration at half-maximal activity (AC50) was 0.259 µM [falling, full curve, poor fit]. As to `Cc1ccccc1CC1(CO)CCCN(C(=O)Cc2c(F)ccc(F)c2F)C1` (stereo not drawn), the cell number change is -28%. In addition, the half-maximal activity concentration (AC50) under setting [1] was 29.1 µM [falling, single point]. As for `CC1SC(=NC(=O)c2ccncc2)NC1=O` (stereo not drawn), the cell number change stood at 3%. Same read-out and setting: under `O=C(NCCNc1ccc([N+](=O)[O-])cc1Cl)c1ccccc1F` stands -24.3%. For the molecule `O=C(c1ccc(CSc2ccc(Cl)cc2)cc1)N1CCOCC1`, the cell number change is -50.3%. Moreover, the AC50 under setting [2] is 5.17 µM [falling, partial curve, poor fit]. As for `CCCCC(=O)Nc1cc(-c2nc3ncccc3o2)ccc1C`, the cell number change came to 3.44%. Consider `CC1CN(C(=O)CN2C(=O)c3ccccc3C2=O)CC(C)O1` (stereo not drawn), for which the concentration at half-maximal activity (AC50) under setting [1] is 3.66 µM [falling, full curve].

As for `O=C(C1CCCCN1S(=O)(=O)c1ccccc1)N1CCN(C(c2ccccc2)c2ccccc2)CC1` (stereo not drawn), the cell number change is -15.1%. Besides, under setting [1], the AC50 was 0.0103 µM [rising, full curve, poor fit].

Turning to `Cc1cc(C)nc(N2CCC(C(=O)NC3CC3)CC2)n1`, under setting [1], the half-maximal activity concentration (AC50) is 0.82 µM [falling, full curve]. As for `COc1ccc(NC(=O)C2CC(c3ccc(OC)c(OC)c3)=NO2)cc1OC` (stereo not drawn), the cell number change was 24.7%. Also, the half-maximal activity concentration (AC50) under setting [1] is 29.1 µM [rising, single point]. Turning to `O=C(NNC(=O)C12CC3CC(CC(C3)C1)C2)c1ccccc1F`, the cell number change worked out at 18.3%. Moreover, the AC50 under setting [1] was 0.82 µM [rising, full curve, poor fit].

For the molecule `CC(C)c1nnc(NC(=O)CCCC(=O)O)s1`, the cell number change is -80.5%. Also, the AC50 under setting [2] is 29.1 µM [falling, partial curve]. For the same molecule, the AC50 under setting [1] was 23.1 µM [falling, partial curve]. Regarding `CC(=O)N1CCN(c2ccc([N+](=O)[O-])c(-n3nc(C)cc3C)c2)CC1`, the concentration at half-maximal activity (AC50) under setting [1] is 2.91 µM [falling, partial curve].

For `Cc1ccc(C2=NOC(=O)/C2=C\c2ccc(C)o2)cc1`, the cell number change was -9.11%. Also, the AC50 under setting [1] is 29.1 µM [falling, single point]. With `O=c1c(Cc2ccccc2)c(O)ccn1C1CCCCCCC1`, the cell number change was -24.2%. For the same molecule, the AC50 under setting [1] is 39.8 µM [falling, partial curve, poor fit].

For the molecule `COc1ccc(/C=N/OCC(=O)Nc2nc3ccccc3s2)cc1OC`, the cell number change is 18.9%. As for `CCn1cnc2c1c(=O)n(CC(=O)N1CCc3ccccc31)c(=O)n2Cc1ccccc1`, the cell number change was determined as 17.9%.

`Cc1onc(-c2ccccc2)c1C(=O)N/N=C/c1cccc(O)c1`: the cell number change was determined as 6.83%. Moreover, under setting [1], the AC50 was 16.4 µM [rising, single point]. As for `COc1ccc(CN2C(=O)c3cccnc3C2=O)cc1S(=O)(=O)NCc1ccco1`, the cell number change came to 1.65%. As for `CC(=O)Nc1ccc(Nc2nc(Cl)nc(Nc3ccc(NC(C)=O)cc3)n2)cc1`, the cell number change worked out at 15.3%. Besides, the half-maximal activity concentration (AC50) under setting [1] is 16.4 µM [rising, single point]. For `Cc1c(Cl)c([N+](=O)[O-])nn1CC(=O)N1CCCC1`, the cell number change was 23.8%. In addition, the concentration at half-maximal activity (AC50) under setting [2] is 3.66 µM [rising, single point]. In addition, under setting [1], the half-maximal activity concentration (AC50) is 4.11 µM [rising, single point]. Turning to `Cc1ccc(NC(=O)COC(=O)c2ccccc2Nc2ccccc2)cc1`, the cell number change was -42%. Further, the AC50 under setting [2] is 8.2 µM [falling, partial curve, poor fit]. Also, the half-maximal activity concentration (AC50) under setting [1] is 0.116 µM [falling, full curve, poor fit]. Regarding `CCOCCCNCc1cc(Cl)ccc1OCC`, the concentration at half-maximal activity (AC50) under setting [1] is 0.58 µM [falling, single point]. For the molecule `O=C(CCSc1nc2ccccc2s1)N/N=C/c1c(O)ccc2ccccc12`, the cell number change is 100%. The half-maximal activity concentration (AC50) under setting [2] was 29.1 µM [rising, single point]. Besides, the AC50 under setting [1] was 23.1 µM [falling, partial curve]. Consider `Cc1sc2nc(CSCC(=O)N3CC(C)OC(C)C3)[nH]c(=O)c2c1C` (stereo not drawn), for which the cell number change was -7.48%. For the same molecule, the AC50 under setting [1] is 7.31 µM [rising, partial curve]. For `CN(C)/C=C/C(=O)c1c(F)cccc1F`, the cell number change is -18.2%. As to `CC1CC(C)CN(C(=O)CCNS(=O)(=O)c2cccs2)C1` (stereo not drawn), the cell number change is 4.79%. Under setting [1], the half-maximal activity concentration (AC50) is 2.06 µM [rising, single point]. For `CC1(NC(=O)Cc2c(Cl)cccc2Cl)CCS(=O)(=O)C1` (stereo not drawn), the cell number change is -15.2%. Moreover, the AC50 under setting [2] was 7.31 µM [falling, single point]. The AC50 under setting [1] is 6.51 µM [falling, single point]. In the case of `COc1ccc(CNCC(O)(c2ccc(F)cc2)c2ccc(F)cc2)cc1`, the cell number change is -60.9%. In addition, the AC50 under setting [2] was 29.1 µM [falling, single point]. The half-maximal activity concentration (AC50) under setting [1] was 23.1 µM [falling, single point]. On to `CCOc1ccc(NC(=O)NNC(=O)c2cccnc2)cc1`, for which the cell number change was determined as 50.8%. Further, under setting [2], the half-maximal activity concentration (AC50) was 13 µM [rising, partial curve, poor fit]. With `CCOC(=O)C1=c2s/c(=C\c3ccncc3)c(=O)n2C(N)=C(C(=O)OC)C1c1ccncc1` (stereo not drawn), the cell number change was determined as 50%. In addition, the AC50 under setting [2] was 20.6 µM [rising, single point]. Also, the concentration at half-maximal activity (AC50) under setting [1] is 18.4 µM [rising, single point]. Regarding `COc1ccc(O[C@H]2C=C[C@@H](c3ccccc3)O[C@@H]2COC(=O)CC/C(C)=N/O[C@@H](C)CN2CCCCc3nc(C)c(C)cc32)cc1`, the cell number change is -14.6%. In addition, under setting [1], the concentration at half-maximal activity (AC50) was 5.8 µM [falling, partial curve, poor fit]. On to `CCN(CC)S(=O)(=O)c1cccc(-c2nnc(SCc3nnc(-c4ccccc4)o3)n2C)c1`, for which the cell number change stood at 11.8%. The concentration at half-maximal activity (AC50) under setting [1] was 0.82 µM [rising, full curve]. Turning to `CCN1CCN(C2CCN(C(C)=O)CC2)CC1`, the cell number change was -13.7%.

For `COC(=O)C(NNc1ccc(F)cc1)(NC(=O)c1ccccc1)C(F)(F)F` (stereo not drawn), the cell number change was -2.7%. For the same molecule, the AC50 under setting [2] was 2.31 µM [rising, single point].

With `COCCOC(=O)C1=C(C)N=C2SCCC(=O)N2C1c1ccc(C(=O)OC)cc1` (stereo not drawn), the cell number change turned out to be 10.3%. On to `O=C(CN1CCCC1)Nc1ccc(OC(F)(F)F)cc1`, for which the cell number change is -2.93%. Besides, the AC50 under setting [1] was 0.651 µM [falling, single point]. `COc1ccc(C2C(C(C)=O)=C(O)C(=O)N2CCc2ccccc2)c(OC)c1` (stereo not drawn): the cell number change came out at 24.4%. Further, the AC50 under setting [1] was 25.9 µM [falling, partial curve]. With `COc1ccc(NC(=O)c2c(NC(=O)CNCc3ccco3)sc3c2CCC3)c(OC)c1`, the AC50 by setting is: under setting [2], 6.51 µM [rising, single point]; under setting [1], 0.58 µM [rising, single point]. On to `CC1(c2ccc(OC(F)F)cc2)NC(=O)N(CC(=O)Nc2ccccc2)C1=O` (stereo not drawn), for which the cell number change is -23.7%.

Consider `CC(=O)N1c2ccccc2Nc2ccccc21`, for which the cell number change was found to be 13.6%. For the same molecule, the AC50 under setting [1] is 8.2 µM [rising, single point]. Consider `CCCSc1ncnc2sc(C)c(C)c12`, for which the cell number change is -4.78%. Also, the AC50 under setting [1] was 32.6 µM [falling, single point]. On to `COc1cc(F)cc(C2=CC(=O)C[C@H](c3ccc(F)cc3)C2)c1`, for which the cell number change was determined as 2.65%. The AC50 under setting [1] is 0.00411 µM [rising, full curve, poor fit]. For the molecule `O=C1Nc2ccccc2/C1=C/c1ccc([N+](=O)[O-])cc1`, the cell number change is -24.6%. The same measure, in the same setting: under `Cc1cccc(CS(=O)(=O)Cc2ccc(C(=O)NC3CCCC3)o2)c1` stands -3.79%. Turning to `O=S(=O)(NC1CCc2ccccc21)c1ccc(S(=O)(=O)N2CCCC2)cc1` (stereo not drawn), the cell number change turned out to be 22.5%. Under setting [1], the AC50 is 6.51 µM [rising, single point]. Take `COc1cccc2cc(C(=O)C3=C(O)C(=O)N(c4cc(C)on4)C3c3cccs3)oc12` (stereo not drawn): the cell number change was determined as 34.4%. In addition, the concentration at half-maximal activity (AC50) under setting [2] is 35.5 µM [rising, single point]. Consider `CCN1CCN(c2ccc(S(=O)(=O)N3CCCCC3)cc2NC(=O)Cc2ccccc2F)CC1`, for which the cell number change was determined as 44.2%. Moreover, under setting [2], the AC50 is 13 µM [rising, single point]. Turning to `O=C(O)CCCN1C(=O)c2ccc(Oc3cccc([N+](=O)[O-])c3)cc2C1=O`, the cell number change was -42.9%. Under setting [2], the AC50 was 0.13 µM [falling, full curve, poor fit]. Moreover, under setting [1], the half-maximal activity concentration (AC50) was 0.291 µM [falling, full curve, poor fit]. With `O=C(CS(=O)(=O)Nc1ccc(F)cc1Cl)Nc1ccc(F)cc1Cl`, the cell number change was -19%. `O=C(O)c1cn(CCOc2ccccc2Cl)c2ccccc12`: the AC50 under setting [1] is 1.46 µM [rising, partial curve, poor fit].

For `COc1cccc(CN2CC(C(=O)NCc3ncc(C)[nH]3)CCC2=O)c1` (stereo not drawn), the AC50 is 0.731 µM [rising, single point] under setting [2] and 0.58 µM [rising, single point] under setting [1].

Consider `O=C(CNS(=O)(=O)c1ccccc1)N1CCCC1`, for which the cell number change was determined as 17.8%. Moreover, the concentration at half-maximal activity (AC50) under setting [1] was 29.1 µM [rising, single point]. Consider `CCOc1ccc(NC(=O)CCN2CCN(S(=O)(=O)c3ccc(OC)cc3)CC2)cc1`, for which, under setting [2], the AC50 is 0.58 µM [rising, single point].

In the case of `Cc1cc(C(=O)N2CCN(c3ccc([N+](=O)[O-])cc3)CC2)c(C)o1`, the cell number change came to 23.1%. The AC50 under setting [1] was 4.11 µM [rising, full curve].
